# Test: HPLC analysis of endogenous retinoids in parts of the adult mouse brain
smiles,measurement,setting,value
CC1=C(/C=C/C(C)=C/C=C/C(C)=C/C(=O)O)C(C)(C)CCC1 [all-trans-retinoic acid],average level of all-trans-retinoic acid,"cerebellum, endogenous level, peak 3",531±194 pg/mg tissue
same,presence of all-trans-retinoic acid (peak 3),"cerebrum, HPLC",absence
